Our source for the binding values is article PMC5661613.

These are yes or no findings as the source states them, for the method shown. In cells and extracts the contact can be indirect. A result given as binding can be weak or reduced; the word gives no strength. Where a sequence is shown, tags or fusion partners need not be part of it.

This assay deals with T1, PDHA1-Flag (pyruvate dehydrogenase E1 alpha 1 subunit) (UniProt P08559).
T1 sequence: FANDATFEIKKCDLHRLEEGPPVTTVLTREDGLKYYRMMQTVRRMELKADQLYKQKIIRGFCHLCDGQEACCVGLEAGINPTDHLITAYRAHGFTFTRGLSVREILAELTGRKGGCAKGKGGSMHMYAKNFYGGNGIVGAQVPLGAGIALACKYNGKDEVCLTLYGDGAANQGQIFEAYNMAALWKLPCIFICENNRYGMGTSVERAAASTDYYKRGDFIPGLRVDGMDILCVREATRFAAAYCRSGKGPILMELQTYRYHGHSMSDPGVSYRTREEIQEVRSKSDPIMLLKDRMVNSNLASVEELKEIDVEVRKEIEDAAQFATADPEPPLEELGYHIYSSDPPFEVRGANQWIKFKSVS
The assay can be described thus: co-IP; Flag-tagged PDHA1 co-expressed with HA-tagged SIRT3, SIRT4 or SIRT5 in HeLa cells; lysis in NP-40 buffer (0.1-0.5% NP-40, 150 mM NaCl, 50 mM Tris-HCl pH 7.5); Flag-tagged proteins immunoprecipitated, washed three times in NP-40 buffer; western blot. (In general: A western blot detects proteins with antibodies after separation by electrophoresis.)

Turning to HA-tagged SIRT3 (enzyme), the binding result is “binds”.
